Values quoted from earlier work, collected in patent US10376475B2, “Method of use” (Dermavant Sciences GmbH, priority 2014, dated 2019).
At least one structure is not confirmed: it was looked up by name or label, or the drawing left a doubt.

Test system: P. acnes
Conditions: against this bacterial species (P. acnes), comparison statement; cited from earlier work

For `CCC[C@@H]1C[C@@H](C(=O)N[C@@H]([C@H]2O[C@H](SC)[C@H](O)[C@@H](O)[C@H]2O)[C@H](C)Cl)N(C)C1` [clindamycin], the MICs is listed as < 0.5 µg/mL.
